No constants are given. Whether binding was seen depends on the method and setting. Some binding calls cover weakened binding; strength is not graded here.

The chains behind the UniProt entries cited, without tags or fusion partners. Residues count along the entry.
UniProt P51668, residues 2-147: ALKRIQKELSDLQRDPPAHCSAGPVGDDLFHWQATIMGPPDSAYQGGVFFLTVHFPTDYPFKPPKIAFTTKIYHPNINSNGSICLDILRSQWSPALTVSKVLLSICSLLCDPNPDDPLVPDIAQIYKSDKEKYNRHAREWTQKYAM
UniProt P62877, residues 2-108: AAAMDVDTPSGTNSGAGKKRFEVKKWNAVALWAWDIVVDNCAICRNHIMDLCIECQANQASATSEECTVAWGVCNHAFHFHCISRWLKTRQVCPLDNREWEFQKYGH

The assay concerns the target UbcH5a (UniProt P51668). Nature of the assay: cryo-EM structure.

Consider RBX1 (from UniProt P62877) (enzyme), for which the binding result was “binds”.
